Library screening results

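Viability assay of Plasmodium falciparum sporozoites; the read-out is not stated. The concentration is filed as 10 mM, unlikely as a test dose, so the dose is not known. Direction is inferred from retests: higher values go with lower viability. Strong results were mostly tested again. Of about 34,000 compounds tested this way, about 280 (0.84%) reached 50% or more in at least one test.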

Each number is a percent effect as filed.
How 0% and 100% were set is not recorded. Most values in the screen are low, and negative values occur.
The compounds are a random part of those screened.
Two or more numbers in one place are separate tests of the same structure; such repeats can differ widely.

Compound: Cc1nccnc1C1CCN(C(=O)C(C)C)CC1
effect: -7.039

Compound: O=S(=O)(c1cccc(F)c1)N1CCCCC1c1ccn[nH]1 (stereo unspecified)
effect: 9.038

Compound: COc1ncccc1CNC(=O)c1cccc(C)n1
effect: 9.501

Compound: CCc1c(C)nc2cc(C3CCN(Cc4ccccc4F)C3)nn2c1O (stereo unspecified)
effect: -5.332

Compound: COc1cccc(CCC(=O)N2CCCC(c3nncn3C)C2)c1 (stereo unspecified)
effect: -5.28

Compound: COc1cc(F)c(NC(=O)N(C)Cc2cc(C)on2)cc1F
effect: -10.82

Compound: Cc1noc(-c2ccc(-n3ncc(C(=O)O)c3C)nc2)n1
effect: -23.68 and -14.57

Compound: CN(CCCO)Cc1cc(Cl)ccc1OCC(O)CN1CCCCCC1 (stereo unspecified)
effect: 3.76

Compound: Cc1cc(C)n(CC2CN(Cc3nnc(C)o3)CCO2)n1 (stereo unspecified)
effect: 13.91

Compound: Cc1cc(NC(=O)CN2CCCC2c2noc(C)n2)n(C(C)(C)C)n1 (stereo unspecified)
effect: -1.314

Compound: O=C(C1CC1)N1CCN(Cc2ccncc2)c2ncccc2C1.O=C(O)C(F)(F)F.O=C(O)C(F)(F)F
effect: 0.8432

Compound: [H][C@]12CCN(C(=O)Cc3cccc(OC)c3)CC[C@@]1([H])S(=O)(=O)N(CC)C2
effect: 12.76

Compound: O=C(O)C(F)(F)F.O=C(O)C(F)(F)F.[H][C@]12CCC[C@@]1(COc1ccccn1)CN(Cc1cnn(C)c1)C2
effect: 5.954

Compound: Cc1noc(CN(C)C2CCCN(Cc3noc(C4CC4)n3)C2)n1 (stereo unspecified)
effect: -16.25

Compound: CCOCC1CN(C(=O)C2CCOCC2)Cc2cnn(C)c21 (stereo unspecified)
effect: 1.349

Compound: CCN(CCOC)C(=O)c1ccc2c(c1)nc(N1CC[C@H](O)C1)n2C
effect: -3.374

Compound: CCc1nc(CCNC(=O)Nc2ccc(C(=O)NC)cc2)cs1
effect: -2.206

Compound: CN(C)c1ccc(C(=O)N2CCCC2c2cnn(C)c2)cn1 (stereo unspecified)
effect: 8.805

Compound: Cc1cnn(CC2CCCN2C(=O)c2cc3c(F)cccc3[nH]2)c1 (stereo unspecified)
effect: -8.889

Compound: Clc1ccccc1C1(c2ccnc(-c3ccncc3)n2)CCNCC1
effect: -9.815

Compound: c1cnn(-c2ccc(CN3CCOC(Cn4cncn4)C3)cc2)c1 (stereo unspecified)
effect: -3.043

Compound: Cc1ccc(C)c(-c2csc(N)c2C#N)c1
effect: -23.68

Compound: Cc1ccsc1C(=O)N1CCc2ncc(Cn3cccn3)n2CC1
effect: 6.559

Compound: COc1ccc(CC(=O)N2CC[C@H](CO)[C@H](O)C2)c(OC)c1
effect: 1.874

Compound: O=C(CCc1ccc(-c2ccccc2)[nH]1)N1CCCC(n2ccnc2)C1 (stereo unspecified)
effect: 6.389

Compound: COc1cc(CNC(C)c2cccc(Cl)c2)cc(OC)c1OC (stereo unspecified)
effect: -15.69

Compound: NC(=O)c1cnn2c1NCC(CNCCc1ccco1)C2 (stereo unspecified)
effect: -0.1649

Compound: OCCCNc1nc(O)c2c(n1)-c1ccccc1CC21CCCCC1
effect: 5.177

Compound: Br.Cc1ncc(C(=O)N2CCOC(C(=O)N3CCCCCC3)C2)c(C)n1 (stereo unspecified)
effect: -0.1925

Compound: Cc1nc(O)c2nnn(C[C@H]3CCCN3C(=O)c3ccccc3C)c2n1
effect: 4.33

Compound: O=C(CN1CCOC(Cn2cccn2)C1)NCCc1cccs1 (stereo unspecified)
effect: 0.08937

Compound: CCn1cc(CN2CCCN(C(=O)c3cccc(C#N)c3)CC2)cn1
effect: 17.58

Compound: O=C(O)c1ccc(S(=O)(=O)Nc2c(F)cccc2-n2cccn2)cc1
effect: -21.32

Compound: CCC(=O)N1CCC(Cc2cnc(Nc3cnccn3)cn2)CC1
effect: -2.366

Compound: Cc1c(CN2C[C@@H](O)[C@H](Oc3cccc(F)c3)C2)cnn1C
effect: 5.204

Compound: O=C1NCC2(CCCN(Cc3ccc(F)cc3)C2)Oc2ccccc21 (stereo unspecified)
effect: 2.028

Compound: COc1cccc2c1OCC(NC(=O)NC1CCN(C3CC3)CC1)C2 (stereo unspecified)
effect: -14.32

Compound: Cc1cnn(CC(=O)N2CCCN(c3nc(C)cs3)CC2)c1
effect: -0.8216

Compound: Cc1nc(N2CCN(C)CC2)ncc1C(=O)N1CCC(O)(CO)CC1
effect: 1.845

Compound: CCNC(=O)[C@H]1CN(Cc2ccccc2)C[C@@H]1C(=O)c1ccccc1
effect: -0.38

Compound: Cc1nc(CNc2cccc(Cl)c2Cl)cs1
effect: -6.91

Compound: O=C(CCC(=O)N1CCCC1c1cccs1)N1CCc2sccc2C1 (stereo unspecified)
effect: -10.56

Compound: [H][C@@]12CCN(C(=O)c3cccs3)C[C@]1([H])OCCNC2=O
effect: -1.107

Compound: Cc1c(C)n2c(SCC(=O)N3CCCCC3)nnc2[nH]c1=O
effect: -36.93 and -44.09

Compound: c1ccc(-c2nc(CN3CCOC(Cn4cncn4)C3)cs2)cc1 (stereo unspecified)
effect: 57.17 and 32.5 and 36.71

Compound: CC(=O)N1CC(C(=O)NCCc2ncc(C)s2)C1
effect: 2.254

Compound: COc1ccc(CN2CCCn3nnc(COCC4CC4)c3C2)cc1.O=C(O)C(F)(F)F
effect: 1.128

Compound: O=C(O)C(F)(F)F.O=C(O)C(F)(F)F.[H][C@@]12CCN(C)[C@@]1([H])CCN2Cc1cc(C)c(C)o1
effect: 17.45

Compound: O=C(NCCN1CCCCCC1=O)c1n[nH]c(=O)c2ccccc12
effect: 12.59

Compound: [H][C@]12CCN(C(=O)c3ccno3)C[C@@]1([H])OCCN(C1CCOCC1)C2
effect: 6.92

Compound: COC(=O)CCC(=O)N1CCC2(CN(Cc3ccccc3)C2)C1
effect: -5.526

Compound: COc1ccc2c(c1)C1(CCNCC1)CC2NC1CC1.Cl.Cl (stereo unspecified)
effect: 14.71

Compound: COc1ccccc1NC(=O)NCC(O)(c1ccccc1)C1CC1 (stereo unspecified)
effect: -10.51

Compound: CN(Cc1cccnc1)C1COC2(CCN(Cc3nccs3)CC2)C1.O=C(O)C(F)(F)F.O=C(O)C(F)(F)F.O=C(O)C(F)(F)F (stereo unspecified)
effect: 1.686

Compound: CC(NC(=O)CCn1cccn1)c1ccc2c(c1)OCCO2 (stereo unspecified)
effect: 10.08

Compound: CC(C)Cc1cc(CC2(NCc3ccccc3Cl)COC2)no1
effect: -8.312 and -4.108

Compound: CCc1cc(N2CCC(NCCc3nc(C)c(C)s3)CC2)nc(C)n1
effect: 1.074

Repeated from the top, 7 entries:

Cc1nccnc1C1CCN(C(=O)C(C)C)CC1 gave -7.039%.
O=S(=O)(c1cccc(F)c1)N1CCCCC1c1ccn[nH]1 (stereo unspecified) gave 9.038%.
COc1ncccc1CNC(=O)c1cccc(C)n1 gave 9.501%.
CCc1c(C)nc2cc(C3CCN(Cc4ccccc4F)C3)nn2c1O (stereo unspecified) gave -5.332%.
COc1cccc(CCC(=O)N2CCCC(c3nncn3C)C2)c1 (stereo unspecified) gave -5.28%.
COc1cc(F)c(NC(=O)N(C)Cc2cc(C)on2)cc1F gave -10.82%.
Cc1noc(-c2ccc(-n3ncc(C(=O)O)c3C)nc2)n1 gave -23.68% and -14.57%.

Measurements from “University of Dundee, Small-Polar-MMV Screening Library” (2021), ChEMBL document CHEMBL3988442.